Assay results as given in PMC11926786 (Bioconjugate Chemistry, 2025).
Some peptides are written in HELM: one residue between dots, names in brackets for other building blocks, links after the first $. *1 amine or outer side, *2 acyl side, *3 side chain or, on linkers, in order; H or OH if unused. Side-chain parts run from the residue outwards. The star is where a group is joined. γGlu = O=C(O)[C@H](CCC(=O)[*:2])N[*:1]; Palmitoyl = CCCCCCCCCCCCCCCC(=O)*

Tests used:
peptide made by a vendor [1] = details: whole synthesis, acetate salt
peptide made by a vendor [2] = details: whole synthesis, acetate salt; remark: listed apart in the source

| Substance | final purity (method not given) (peptide made by a vendor [1]) | final purity (method not given) (peptide made by a vendor [2]) |
| --- | --- | --- |
| H-HAEGTFTSDVSSYLEGK([γGlu-Palmitoyl])AAREFIAWLVRGRG-NH2 (SMILES CCCCCCCCCCCCCCCC(=O)N[C@@H](CCC(=O)NCCCC[C@H](NC(=O)CNC(=O)[C@H](CCC(=O)O)NC(=O)[C@H](CC(C)C)NC(=O)[C@H](Cc1ccc(O)cc1)NC(=O)[C@H](CO)NC(=O)[C@H](CO)NC(=O)[C@@H](NC(=O)[C@H](CC(=O)O)NC(=O)[C@H](CO)NC(=O)[C@@H](NC(=O)[C@H](Cc1ccccc1)NC(=O)[C@@H](NC(=O)CNC(=O)[C@H](CCC(=O)O)NC(=O)[C@H](C)NC(=O)[C@@H](N)Cc1c[nH]cn1)[C@@H](C)O)[C@@H](C)O)C(C)C)C(=O)N[C@@H](C)C(=O)N[C@@H](C)C(=O)N[C@@H](CCCNC(=N)N)C(=O)N[C@@H](CCC(=O)O)C(=O)N[C@@H](Cc1ccccc1)C(=O)N[C@H](C(=O)N[C@@H](C)C(=O)N[C@@H](Cc1c[nH]c2ccccc12)C(=O)N[C@@H](CC(C)C)C(=O)N[C@H](C(=O)N[C@@H](CCCNC(=N)N)C(=O)NCC(=O)N[C@@H](CCCNC(=N)N)C(=O)NCC(N)=O)C(C)C)[C@@H](C)CC)C(=O)O) | 96.3% | – |
| PEPTIDE1{H.A.E.G.T.F.T.S.D.V.S.S.Y.L.E.G.Q.A.A.K.E.F.I.A.W.L.V.K.G.R.G.[am]}$$$$V2.0 | – | 99.2% |
| PEPTIDE1{H.[Aib].E.G.T.F.T.S.D.V.S.S.Y.L.E.G.Q.A.A.[Ksema].E.F.I.A.W.L.V.R.G.R.G.[am]}$$$$V2.0 | approximately 96% | – |
| PEPTIDE1{H.[Kpal].E.G.T.F.T.S.D.V.S.S.Y.L.E.G.Q.A.A.R.E.F.I.A.W.R.V.R.G.R.G.[am]}$$$$V2.0 | 96% | – |
| H-HAEGTFTSDVSK([γGlu-Palmitoyl])YLEGQAAREFIAWLVRGRG-NH2 (SMILES CCCCCCCCCCCCCCCC(=O)N[C@@H](CCC(=O)NCCCC[C@H](NC(=O)[C@H](CO)NC(=O)[C@@H](NC(=O)[C@H](CC(=O)O)NC(=O)[C@H](CO)NC(=O)[C@@H](NC(=O)[C@H](Cc1ccccc1)NC(=O)[C@@H](NC(=O)CNC(=O)[C@H](CCC(=O)O)NC(=O)[C@H](C)NC(=O)[C@@H](N)Cc1c[nH]cn1)[C@@H](C)O)[C@@H](C)O)C(C)C)C(=O)N[C@@H](Cc1ccc(O)cc1)C(=O)N[C@@H](CC(C)C)C(=O)N[C@@H](CCC(=O)O)C(=O)NCC(=O)N[C@@H](CCC(N)=O)C(=O)N[C@@H](C)C(=O)N[C@@H](C)C(=O)N[C@@H](CCCNC(=N)N)C(=O)N[C@@H](CCC(=O)O)C(=O)N[C@@H](Cc1ccccc1)C(=O)N[C@H](C(=O)N[C@@H](C)C(=O)N[C@@H](Cc1c[nH]c2ccccc12)C(=O)N[C@@H](CC(C)C)C(=O)N[C@H](C(=O)N[C@@H](CCCNC(=N)N)C(=O)NCC(=O)N[C@@H](CCCNC(=N)N)C(=O)NCC(N)=O)C(C)C)[C@@H](C)CC)C(=O)O) | 95.6% | – |
